Consider one substance from patent US20100316648A1 (published 2010).

Sequences of proteins named here, by UniProt entry; tags and fusion partners are left off. Residues count along the entry.
UniProt P00747, residues 461-809: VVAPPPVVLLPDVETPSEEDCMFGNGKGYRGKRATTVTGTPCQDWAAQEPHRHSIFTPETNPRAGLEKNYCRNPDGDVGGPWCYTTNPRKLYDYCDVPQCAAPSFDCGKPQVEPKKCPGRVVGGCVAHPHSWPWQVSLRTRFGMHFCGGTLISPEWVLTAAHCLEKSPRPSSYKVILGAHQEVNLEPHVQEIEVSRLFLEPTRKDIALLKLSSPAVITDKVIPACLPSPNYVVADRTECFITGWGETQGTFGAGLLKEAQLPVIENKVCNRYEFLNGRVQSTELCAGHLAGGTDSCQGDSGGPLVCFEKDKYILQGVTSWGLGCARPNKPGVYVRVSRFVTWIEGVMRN

Results are given in words; binding and its absence hold for the method and conditions named. Some results given as binding are weak or reduced against the parent protein; the word gives no strength.

The assay concerns the target T1, Plg-RKT carboxyl-terminal peptide … (SEQ ID NO: 33) (mouse).
T1 sequence (peptide, coupled to bovine serum albumin (BSA) and coated on microtiter wells): CEQSKLFSDK
The assay can be described thus: competition ELISA against biotinylated plasminogen on immobilized peptide. (In general: In an ELISA, binding on a coated surface is turned into a signal by an enzyme label.)

As for “plasminogen fragment K5-PD (from UniProt P00747 461-809)”, the binding entry is recorded as “binds”.
